# In the supplement of paper PMC8728848:
# Some of the results follow.
# B1: AT1G77380(17) (Arabidopsis thaliana), Q39134 (protein)
# chain: MVQNHQTVLAVDMPQTGGSKYLDDDGKNKRTGSVWTASAHIITAVIGSGVLSLAWATAQLGWLAGPVVMLLFSAVTYFTSSLLAACYRSGDPISGKRNYTYMDAVRSNLGGVKVTLCGIVQYLNIFGVAIGYTIASAISMMAIKRSNCFHKSGGKDPCHMNSNPYMIAFGLVQILFSQIPDFDQLWWLSILAAVMSFTYSSAGLALGIAQVVVNGKVKGSLTGISIGAVTETQKIWRTFQALGDIAFAYSYSIILIEIQDTVKSPPSEEKTMKKATLVSVSVTTMFYMLCGCMGYAAFGDLSPGNLLTGFGFYNPYWLLDIANAAIVIHLIGAYQVYCQPLFAFIEKQASIQFPDSEFIAKDIKIPIPGFKPLRLNVFRLIWRTVFVIITTVISMLLPFFNDVVGLLGALGFWPLTVYFPVEMYIAQKKIPRWSTRWVCLQVFSLGCLVVSIAAAAGSIAGVLLDLKSYKPFRSEY
# Assays:
# Test in all cases: glycan array binding signal (z-score within array); higher = stronger binding
# Details in all cases: glycan notation: IUPAC condensed, linker removed
# [1] = target: Neu5Gc(a2-8)Neu5Gc(a2-3)Gal(b1-4)GlcNAc(b1-3)Gal(b1-4)GlcNAc
# How it was run: (§1)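 From the Consortium for Functional Glycomics database, 3228 arrays were curated, keeping only those whose protein sequence was available. Binding is given as a within-array Z-score averaged across arrays sharing a protein sequence and across linkers. Negative Z-scores can be read as non-binding.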
# [2] = target: Neu5Gc(a2-8)Neu5Gc(a2-6)Gal(b1-4)GlcNAc
# How it was run: as §1
# [3] = target: Neu5Gc(b2-6)Gal(b1-4)GlcNAc
# How it was run: as §1
binder,measurement,setting,value
B1,glycan array binding signal (z-score),[1],0.506
same,glycan array binding signal (z-score),[2],-0.946
same,glycan array binding signal (z-score),[3],-0.279
